# Data published in PubChem BioAssay AID624297 (National Center for Advancing Translational Sciences (NCATS), 2012).
# In all, about 340,000 compounds went through this assay and about 6,200 (1.8%) were called active. The shares of active, inactive and inconclusive entries below differ from those in the screen. Calls follow the shape of the dose curve; as a rule, active = well fitted activation curve with a large enough effect; inconclusive = small, poorly fitted or top-dose-only effect; inactive = no such curve, though single readings can be large or run the other way. A potency beside an inconclusive call is a rough fit, not a confirmed value.
# Test: A quantitative high throughput screen for small molecules that induce DNA re-replication in SW480 colon adenocarcinoma cells. Also: nearly all actives have a fitted effect of over 55% in size. As to re-replication activation: % of control where 0% means no effect.
# Conditions: Hoechst DNA content imaging, 48 h; re-replication activation: at 46.1 µM (top of the series) unless noted
# Summary of the method: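 DNA re-replication was detected as more nuclei of elevated Hoechst intensity after 48 hr exposure to compound (23 nL pinned per well of 250 cells).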
# Potency is read from the fitted curve at half-maximal effect.
Structure (SMILES),Potency,re-replication activation
c1ccc(Cn2c(SCc3cn4cccnc4n3)nnc2-c2ccco2)cc1,"inconclusive: 6.51 µM [activator, single point]",
Cc1nc2ccccn2c1-c1csc(Nc2ccc(C(=O)O)cc2)n1,active: 11.6 µM,
COC(=O)CNC(=O)c1cn(CC(C)C)c(=O)c2cc(OC)c(OC)cc12,,inactive: -11.2%
Cc1ccccc1-c1n[nH]c(=S)n1/N=C/C=C/c1ccco1,,inactive: 24.2%
Cc1noc(C)c1COC(=O)c1cnc(Cl)c(Cl)c1,"inconclusive: 18.4 µM [activator, single point]",
Oc1cccc(/C=N/Nc2cc(N3CCOCC3)nc(N3CCOCC3)n2)c1,active: 5.8 µM,
CCOC(=O)/C=c1\s/c(=C\c2c(OCC)ccc3ccccc23)c(=O)n1CC(=O)NCC1CCCO1 (stereo not given),,inactive: 23.1%
COc1ccc(Nc2nc(NC(C)(C)C)nc(N3CCOCC3)n2)c(OC)c1,"inconclusive: 29.1 µM [activator, single point]",
CN(C(=O)CSc1nc2ccc([N+](=O)[O-])cc2s1)C1CCS(=O)(=O)C1 (stereo not given),"inconclusive: 16.4 µM [activator, single point]",
Cc1[nH]c(N=Nc2ccccc2)nc1N=Nc1ccccc1,active: 7.31 µM,
CCCCN(C(C)=O)c1ccc2c(c1)C1CC2CCN1C(=O)OCc1ccccc1 (stereo not given),"inconclusive: 11.6 µM [activator, partial curve, poor fit]",
CCOc1ccc2nc(SC3CC(=O)N(c4ccccc4)C3=O)sc2c1 (stereo not given),"inconclusive: 32.6 µM [activator, partial curve, poor fit]",
COc1ccc(C=O)cc1CSc1ccccn1,,inactive: -4.64% [at 9.22 µM]
COc1ccc(C)cc1NC(=O)CN(Cc1nnc(-c2ccc(Cl)cc2)o1)C1CCCC1,"inconclusive: 18.4 µM [activator, partial curve, poor fit]",
O=C(CN(c1ccccc1)S(=O)(=O)c1ccccc1)NCCSc1ccccn1,,inactive: -0.592%
CN(CC(=O)Nc1ccc(N2CCOCC2)cc1)C(=O)Cc1ccccc1,,inactive: -5.8%
CC(=O)Nc1ccc(SCC(=O)NNC(=O)CN(C)S(=O)(=O)c2ccc(C)cc2)cc1,active: 5.17 µM,
Cc1ccc(C(=O)NCCN2C3=NC[C@H](C)N3C[C@H]2Cc2ccc(O)cc2)cc1Br,,inactive: -6.41%
Cc1ccc(NC(=O)c2ncn(CC(=O)N[C@H](C)c3cccc4ccccc34)n2)cc1C,,inactive: -10%
CN(C)c1ccc(/C=N\NC(=O)c2cccc3cc[nH]c23)cc1,"inconclusive: 18.4 µM [activator, single point]",
COC(=O)c1ccc2c(c1)C(NC(C)=O)CCc1cc(OC)c(OC)c(OC)c1-2 (stereo not given),active: 0.092 µM,
O=C1NC(=Nc2cccc(O)c2)S/C1=C\c1cccnc1,"inconclusive: 23.1 µM [activator, single point]",
CN(C(=S)NC(=O)c1ccc(Cl)cc1)C1CCCCC1,,inactive: 1.71%
Cc1ccc(NC(=S)Nc2cc(C(=O)O)ccc2N2CC3CC(C2)c2cccc(=O)n2C3)cc1C (stereo not given),"inconclusive: 2.06 µM [activator, partial curve]",

Structure (SMILES),Potency,re-replication activation
O=C(NCc1ccc2c(c1)OCO2)c1ccc2c(=O)n(C3CCCC3)c(=O)[nH]c2c1,"inconclusive: 29.1 µM [activator, single point]",
COC(=O)c1ccc2c(=O)n(Cc3ccc(C(=O)NCCCN4CCC(C)CC4)cc3)c(=S)[nH]c2c1,"inconclusive: 29.1 µM [activator, single point]",
CCN(CC(=O)Nc1ccc2c(c1)OCCO2)S(=O)(=O)c1ccc(C)cc1,,inactive: -4.01%
COc1cc(/C=C(/C#N)C(=O)Nc2ccc(C)cc2)ccc1Oc1nc(Cl)ncc1F,"inconclusive: 29.1 µM [activator, single point]",
COc1ccc(C(=O)/C=C/c2ccccc2)c(O)c1,"inconclusive: 29.1 µM [activator, single point]",
Cc1cccc(OCCCC(=O)NC2CCCCC2)c1,"inconclusive: 2.59 µM [activator, single point]",
Cc1cccc(Cn2c(=O)n(-c3ccc(CC(=O)NCc4ccco4)cc3)c(=O)c3sccc32)c1,"inconclusive: 29.1 µM [activator, single point]",
CCOC(=O)C1(CCc2ccccc2)CCN(Cc2ccc(C(=O)OC)cc2)CC1,"inconclusive: 20.6 µM [activator, single point]",
CCC1=NN(C(=O)c2ccc([N+](=O)[O-])cc2)C(O)(c2ccccc2)C1 (stereo not given),"inconclusive: 29.1 µM [activator, single point]",
CCC(O)CNC(=O)NC(=C(Cl)Cl)c1ccc(C)c(F)c1 (stereo not given),"inconclusive: 23.1 µM [activator, single point]",
CCOC(=O)c1sc(NC(=O)C(CC)Sc2nnc3c4ccccc4n(CC)c3n2)nc1C (stereo not given),,inactive: 0.54%
CN(C)S(=O)(=O)c1cccc(NC(=S)N/N=C/C(=O)c2ccccc2)c1,"inconclusive: 23.1 µM [activator, partial curve, poor fit]",
CCOC(=O)C(C)Sc1nnc(Cn2c(=O)sc3ccccc32)n1-c1ccccc1 (stereo not given),"inconclusive: 0.231 µM [activator, full curve, poor fit]",
CC1(C(=O)NNC(=O)c2cccc([N+](=O)[O-])c2)CC1(Br)Br (stereo not given),"inconclusive: 0.0092 µM [activator, full curve, poor fit]",
COc1ccccc1NC(=O)C(=O)N(c1cccnc1)C(C(=O)NC(C)(C)C)c1ccccc1F (stereo not given),,inactive: 2.35%
Cc1cc(C)c(/C([O-])=C(/C(=S)Nc2ccc(SC(F)F)cc2)[n+]2ccccc2)cc1C,"inconclusive: 29.1 µM [activator, single point]",
C=COc1ccc(N2C(=O)c3ccccc3OC2C)cc1 (stereo not given),"inconclusive: 0.0065 µM [activator, full curve, poor fit]",
COc1ccc(C(=O)/C=C2\Sc3ccccc3N2C)cc1,"inconclusive: 23.1 µM [activator, single point]",
c1ccc(CNc2nc(N3CCN(Cc4ccccc4)CC3)nc3ccccc23)cc1,"inconclusive: 29.1 µM [activator, single point]",
Cc1ccc2sc(NC(=O)CSc3nc(C)cc(C)c3C#N)nc2c1,active: 2.82 µM,
O=c1[nH]nnc2cc(Cl)ccc12,,inactive: -0.578%
O=C(Cc1ccc(NC(=O)C2CCCN(C(=O)C3CC3)C2)cc1)Nc1ccc(C(=O)N2CCOCC2)cc1 (stereo not given),,inactive: 13.8% [at 9.22 µM]
Cc1ccc(S(=O)(=O)N(C)C)cc1NC(=O)COC(=O)c1c(-c2ccccc2)noc1C,"inconclusive: 29.1 µM [activator, single point]",
Cc1cc(=O)n2[nH]c(-c3sccc3-n3c(C)ccc3C)cc2n1,"inconclusive: 11.6 µM [activator, partial curve, poor fit]",

# Whole records, quoted from the list.
# O=C(NCc1ccc2c(c1)OCO2)c1ccc2c(=O)n(C3CCCC3)c(=O)[nH]c2c1 is listed with Potency: inconclusive: 29.1 µM [activator, single point]
# CCC(O)CNC(=O)NC(=C(Cl)Cl)c1ccc(C)c(F)c1 (stereo not given) is listed with Potency: inconclusive: 23.1 µM [activator, single point]
# Cc1cccc(Cn2c(=O)n(-c3ccc(CC(=O)NCc4ccco4)cc3)c(=O)c3sccc32)c1 is listed with Potency: inconclusive: 29.1 µM [activator, single point]

# More structures

Structure (SMILES),Potency,re-replication activation
CCCCCOc1ccc(N2C(=O)CC(N(O)c3ccccc3)C2=O)cc1 (stereo not given),"inconclusive: 29.1 µM [activator, single point]",
Cc1cc2nc(-c3ccc(SCC(=O)N4CCOCC4)nc3)[nH]c2cc1C,,inactive: -11.7%
COc1ccc(-c2nn3c(-c4ccccn4)nnc3s2)cc1OC,,inactive: -15.1%
N=c1c2c(-c3ccccc3)c(-c3ccccc3)n(Cc3ccco3)c2ncn1CCCO,"inconclusive: 1.64 µM [activator, partial curve, poor fit]",
CCCCCCc1cc2cc(-c3nnc(-c4cc(OC)c(OC)c(OC)c4)o3)c(=O)oc2cc1O,active: 8.2 µM,
O=C(N/N=C/c1ccc2c(c1)OCO2)c1cc(-c2ccc(F)cc2)nc2ccccc12,"inconclusive: 29.1 µM [activator, single point]",
CCC(=O)NC(c1cccs1)c1ccc2cccnc2c1O (stereo not given),"inconclusive: 0.651 µM [activator, full curve]",
CCCn1c(CN2CCN(C(=O)OCC)CC2)nc2cc(NC(=O)C(C)C)ccc21,"inconclusive: 13 µM [activator, partial curve, poor fit]",
O=C(COc1ccc(Cl)cc1[N+](=O)[O-])NC1CCCCC1,"inconclusive: 5.17 µM [activator, single point]",
COc1ccc(-c2nnc3n2CCCCC3)cc1OC,"inconclusive: 35.5 µM [activator, single point]",
COc1ccccc1C(=O)NCC(=O)N1CC=C(c2ccccc2)CC1,,inactive: -5.55%
CCn1cc(C(=O)N(C)CC(OC)OC)c(=O)c2cc(S(=O)(=O)N3CCOCC3)ccc21,,inactive: 2.86%
CCCc1[nH]nc2c1C(c1ccsc1)C(C#N)=C(N)O2 (stereo not given),,inactive: 4.01%
O=C(Cn1cnc2cc([N+](=O)[O-])ccc2c1=O)Nc1ccc2c(c1)CCC2,,inactive: -6.02%
COC(=O)c1sccc1NC(=O)C1CC1,"inconclusive: 4.61 µM [activator, full curve, poor fit]",
Cc1ccc(-c2csc3nc[nH]c(=S)c23)cc1,"inconclusive: 23.1 µM [activator, single point]",
CN(C)C=NC(=O)c1[nH]c2ccc(Cl)cc2c1-c1ccccc1,"inconclusive: 29.1 µM [activator, single point]",
COc1cccc(Oc2ccc(C(F)(F)F)cc2N)c1,,inactive: 10.1%
COc1nc(NCCc2ccc(OC)c(OC)c2)nc(Nc2ccccc2)n1,"inconclusive: 18.4 µM [activator, partial curve, poor fit]",
O=C(/C=C/c1ccccc1)CCN1CCCCC1,active: 2.91 µM,
O=C(Nc1ccccc1[N+](=O)[O-])c1cccc(N2C(=O)CCC2=O)c1,"inconclusive: 29.1 µM [activator, single point]",
CCCC(=O)Nc1ncnc2c1ncn2[C@@H]1O[C@@H]2OP(=O)(O)OC[C@H]2[C@H]1OC(=O)CCC,"inconclusive: 0.141 µM [activator, full curve, poor fit]",
